# Data taken from PubChem BioAssay AID1347426 (Functional Genomics Laboratory (NCATS/FGL), 2020).
# The whole screen tested about 31,000 sequences, of which about 1,400 (4.5%) were called active.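 Rule for the calls: active = median seed-adjusted z-score above 1 or below -1; inactive = the rest.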 This is one part of the list.
# Assay: Novel Modifiers of Survival Motor Neuron (SMN) Protein: Gene Identification via Genome-wide siRNA Screen;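 note: luminescence tracks full-length SMN protein made from the SMN2 reporter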
# Conditions: HEK293T SMN2-luciferase reporter, siRNA knockdown, 72 h; actives lie on both sides
# Procedure, shortened: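 siRNA screen, 10418 genes ×3 siRNAs; 1 pmol/well, lipid reverse transfection into HEK293T SMN2-luc reporter line. 72 h, 37 °C, 5% CO2; ONE-Glo readout. Data: neg-ctrl normalized, log10, MAD; hit = MAD >1.0 or < -1.0.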
row,Sequence,median seed-adjusted z-score
1,GGAUAACUUCCUAUAUGAATT against GPR160,inactive: -0.278
2,GGAGAACCACAAGAACAUUTT against ZNF423,inactive: 0.0134
3,GUCAAAGAGUGACAACUUUTT against CALB2,inactive: 0
4,UGUCAGCUGCAUAAAGAGATT against LTF,inactive: 0.236
5,GCCUAUCUCCAAAAUCUGATT against MYH1,inactive: -0.567
6,GAAACGAUGCCCAAUCUUATT against LRRTM2,inactive: 0.508
7,GCGACUCCUAGAGAACAAATT against LSG1,active: 1.31
8,CUACCUUACCUGAACGUAUTT against C1GALT1,inactive: -0.394
9,GAAAGAUAUUCCUUACUUUTT against RAB7B,inactive: 0
10,GUUCAGGAGUUAUCGAACATT against IFIH1,inactive: 0.419
11,GUAUUUGAAUCACCACAAATT against ZNF692,inactive: 0.556
12,GCAACGUGAUCAAAGGUAUTT against GNA13,inactive: 0
13,GGUCAAUUCAGUGAAGAUATT against ARL8B,inactive: -0.477
14,GCAAGAUCAUGAACCACGATT against CDC42BPG,inactive: 0.153
15,GCAGUUUACUGUUGCGUUUTT against RAB35,inactive: 0.317
16,GAGCUGAUCUACAAAGAAUTT against PDE2A,inactive: -0.2
17,GCAGCUCCACGAGACCUUUTT against WFDC1,inactive: 0.152
18,AGAAGUACGAGGCACUGUATT against APBB3,inactive: -0.299
19,GCACAUCAGUGGAGUGUUUTT against IFT140,inactive: -0.0152
20,GCUCCAACCUCGAAGUAGATT against ACVR2B,inactive: 0.824
21,CAAAUCUGAGCAAUACAUATT against ACCN2,inactive: -0.597
22,GAAUUCGCUUCAUCCAUUUTT against POMT2,inactive: -0.614
23,GCUAUGGUCUGAUCCAGAUTT against PPP1CB,inactive: -0.81

row,Sequence,median seed-adjusted z-score
1,GAUAGUGACUCGGAUCUUATT against RPH3AL,inactive: 0.21
2,GCAGUUGUAUAAAGGUGCATT against FBXO11,inactive: 0.733
3,UCAUUUACCGAGACCUGAATT against RPS6KA4,inactive: 0.193
4,CAACCACAAUGUUCGUAAATT against GBF1,inactive: -0.162
5,GCAUCGAGGUUGGCAAGAATT against NME3,inactive: -0.0125
6,GUGUCUCUGCUCUAAGUAATT against B4GALT1,inactive: 0
7,CGAGUGUGGUUACAGAGGATT against GPT2,inactive: 0.0268
8,CCUCCAUUCUUAACCUCUUTT against HRH2,inactive: -0.257
9,CAGAAGAAAUAGGCAAGAATT against SMAP2,inactive: -0.0114
10,AGAAUUCCGUGAACAGUCATT against TGM3,inactive: 0.257
11,AGGACAUUUCUAUAUGUAUTT against RGPD5,inactive: -0.0931
12,GCAUUGACCUAGUGAUUAATT against CPS1,inactive: -0.247
13,GCAAGAAGAUUGACCUGGATT against KIF2B,inactive: 0.226
14,GGACUAAAAGAAGACUAUATT against CHUK,inactive: -0.613
15,GCGGAGAUCAGAUUAGUCATT against NCL,active: 1.33
16,GGGUCAAAGAAUUACGGAATT against RAB21,inactive: 0.544
17,CGUCAUCCCUCAACAAGAATT against ATP2B2,active: 1.37
18,AUUACACGGUGGACAGUAATT against LHX4,inactive: 0.0795
19,UUCACGCCCUUGACACUAATT against ZNF579,inactive: -0.0604
20,GUUCCAGUAUGGGAAUUAUTT against MEPCE,inactive: -0.35
21,CUAAUAACAGGGUACAGUATT against ZNF238,inactive: -0.491
22,CAAAGCCUCUUUAUUCUUUTT against PTBP1,inactive: 0.578
23,CGAAUAACCUUUAGUGAGATT against CATSPER4,inactive: -0.669

row,Sequence,median seed-adjusted z-score
1,UGACAGUGCUGUUUUAUUUTT against P4HTM,inactive: -0.257
2,CCCAAACUCCUCUACUGUATT against FGF1,inactive: 0.415
3,CGUCGGCCUUCAUCAGGAATT against OTUB2,inactive: 0.513
4,GGACUAAGUGAAGAGCUUATT against NFYB,inactive: -0.29
5,CGAUUGAUGUACAGCUAUATT against FBXO4,inactive: -0.0767
6,GUCAACCACGUGUCCCUUATT against SSTR4,inactive: -0.00217
7,GAACAUUUCCAAGUCUGUATT against YSK4,inactive: -0.181
8,GUAUGAGAGUGACGAGAAATT against ALPL,inactive: -0.229
9,GUGACUCGCUAUUAUUUUATT against TFPI2,inactive: 0.519
10,GGCGUAUCCUGGAUCUAAATT against ARNT,inactive: -0.244
11,GGCCGUGGAUCAUCACUAUTT against FLJ16165,inactive: -0.404
12,GGUGAGUGUUUGAAUACCATT against LTBP1,inactive: 0.143
13,GCAGGUCCGAGGUUACUGATT against KRT19,inactive: 0.0661
14,CACCCUAGGUGUUGCUGGATT against P2RY11,inactive: 0.211
15,AUUGCACGGCUGAACCUGATT against NINJ2,inactive: 0.133
16,CACAAGCAAGUUCAAAUAATT against FCRL4,inactive: -0.39
17,CCAUGACUUCCAGAGCAUATT against CNKSR1,inactive: 0.217
18,CAGCUGAUGCGGACCAAGATT against RASSF4,inactive: 0.29
19,GAAUAUUGUGGGUAAUGCUTT against PHF20,inactive: 0.138
20,CAGAUUAUGAUGAUCAAAATT against E2F8,inactive: 0.209
21,GCAUGGUGGUGCUACUUCATT against ZNF324B,inactive: 0.176
22,GCCUGUGAAGUGAACCUGATT against TMPRSS6,active: 1.29
23,GGAUAAAGAUCCUCCCAUUTT against PDIA4,inactive: -0.499
